Earlier results as cited in patent publication US20010053848A1, “Hetero-oligomeric G protein-coupled receptors as novel drug targets” (priority 2000, published 2001).
At least one structure is not confirmed: it was looked up by name or label, or the drawing left a doubt.

Settings: i.c.v. injections in rats; cited from earlier work

SMILES: C[C@H](N)C(=O)NCC(=O)N[C@H]1CSSC[C@@H](C(=O)O)NC(=O)[C@H](CO)NC(=O)[C@H]([C@@H](C)O)NC(=O)[C@H](Cc2ccccc2)NC(=O)[C@H]([C@@H](C)O)NC(=O)[C@H](CCCCN)NC(=O)[C@H](Cc2c[nH]c3ccccc23)NC(=O)[C@H](Cc2ccccc2)NC(=O)[C@H](Cc2ccccc2)NC(=O)[C@H](CC(N)=O)NC(=O)[C@H](CCCCN)NC1=O [SST-14]
- neurobehavioral effect: dose-dependent neurobehavioral changes progressing from hyperkinesia to catatonia
